Structures can show the parent of a compound that is named as a salt. ± gives the standard deviation of the averaged measurements. The list shows a part of the results. Most values lie within the scatter of the assay; repeated measurements hardly agree.

For this experiment, the system named is A549. The experiment is described as follows: surface PD-L1 immunofluorescence intensity relative to IFN-gamma-only control (ratio); higher = more PD-L1 expression. To be noted: 10 µM; exposure time 24 h; IFN-gamma 100 ng/mL.
As to `Cc1cc(C)nc(NS(=O)(=O)c2ccc(NC(=S)NC(=O)COc3ccc(Br)cc3Cl)cc2)n1`, the “surface PD-L1 immunofluorescence intensity” value stood at 1.02.

For the compound `N[C@@H](Cc1cc(I)c(O)c(I)c1)C(=O)O` [3,5-Diiodo-L-tyrosine], the “surface PD-L1 immunofluorescence intensity” value is 1.07.

For `CN1C(C(=O)Nc2ccccn2)=C(O)c2sc(Cl)cc2S1(=O)=O` [Lornoxicam (Xefo)], the “surface PD-L1 immunofluorescence intensity” value worked out at 1.11.

Regarding `CC12CC3CC(C)(C1)CC(N)(C3)C2` [Memantine Hydrochloride], the “surface PD-L1 immunofluorescence intensity” value was 1.01.

As to `CC12CC3CC(C)(C1)CC(N)(C3)C2` [Memantine hydrochloride], the “surface PD-L1 immunofluorescence intensity” value was determined as 0.913.

As to `COc1ccc(-c2cc(=O)c3c(OC)c(OC)c(OC)c(OC)c3o2)cc1` [Tangeretin (Tangeritin)], the “surface PD-L1 immunofluorescence intensity” value is 1.09.

In the case of `CCO/C(O)=C1\C(C)=NC(c2ccccc2)=C(C(=O)OCc2ccc([N+](=O)[O-])cc2)C1C#Cc1ccccc1` (stereo unspecified), the “surface PD-L1 immunofluorescence intensity” value was determined as 0.976.

For the compound `O=C(O)c1ccc(C=C2SC(=S)N(c3cccc(C(F)(F)F)c3)C2=O)cc1`, the “surface PD-L1 immunofluorescence intensity” value worked out at 0.912.

Regarding `CC/C=C\C/C=C\C/C=C\C/C=C\C/C=C\C/C=C\CCC(=O)O` [Docosa-4Z,7Z,10Z,13Z,16Z,19Z-hexaenoic acid], the “surface PD-L1 immunofluorescence intensity” value came out at 0.979.

Consider `CCC[C@@H]1C[C@@H](C(=O)N[C@@H]([C@H]2O[C@H](SC)[C@H](O)[C@@H](O)[C@H]2O)[C@@H](C)O)N(C)C1` [Lincomycin hydrochloride], for which the “surface PD-L1 immunofluorescence intensity” value worked out at 1.02.

In the case of `CCC[C@@H]1C[C@@H](C(=O)N[C@@H]([C@H]2O[C@H](SC)[C@H](O)[C@@H](O)[C@H]2O)[C@@H](C)O)N(C)C1` [Lincomycin HCl (Lincocin)], the “surface PD-L1 immunofluorescence intensity” value was 0.874.

With `CCN(CC)CCN[C@@H](C(=O)OCCC(C)C)c1ccccc1` [Camylofine chlorhydrate], the “surface PD-L1 immunofluorescence intensity” value amounted to 0.925.

Regarding `CN1CCCN=C1/C=C/c1cccs1` [Pyrantel tartrate], the “surface PD-L1 immunofluorescence intensity” value worked out at 0.898.

Take `CCOC(=O)N1c2ccc(C(F)(F)F)cc2[C@@H](N(Cc2cc(C(F)(F)F)cc(C(F)(F)F)c2)C(=O)OC)C[C@H]1CC`: the “surface PD-L1 immunofluorescence intensity” value came out at 0.982.

Turning to `COc1ccc(-c2cc(=O)c3c(OC)c(OC)c(OC)c(OC)c3o2)cc1OC` [Nobiletin (Hexamethoxyflavone)], the “surface PD-L1 immunofluorescence intensity” value amounted to 0.99.

As for `Cc1ccc(S(=O)(=O)OCC(=O)Nc2ccc(C(=O)O)c(O)c2)cc1`, the “surface PD-L1 immunofluorescence intensity” value amounted to 1.05.

Consider `C[C@H]1C[C@H]2[C@@H]3CCC4=CC(=O)C=C[C@]4(C)[C@H]3C(=O)C[C@]2(C)[C@@]1(O)C(=O)CO` [Betapar (Meprednisone)], for which the “surface PD-L1 immunofluorescence intensity” value was found to be 1.04.

Turning to `CC1(C)O[C@@H]2C[C@H]3[C@@H]4C[C@H](F)C5=CC(=O)CC[C@]5(C)[C@H]4[C@@H](O)C[C@]3(C)[C@]2(C(=O)CO)O1` [Flurandrenolide], the “surface PD-L1 immunofluorescence intensity” value came out at 0.823.

As to `CCC(=O)OCC(=O)[C@@]1(OC(=O)CC)[C@@H](C)C[C@H]2[C@@H]3CCC4=CC(=O)C=C[C@]4(C)[C@@]3(F)[C@@H](O)C[C@@]21C` [Betamethasone Dipropionate (Diprolene)], the “surface PD-L1 immunofluorescence intensity” value came to 0.885.

Regarding `O=C(O)CCCN1CCC(O[C@@H](c2ccc(Cl)cc2)c2ccccn2)CC1` [Bepotastine Besilate], the “surface PD-L1 immunofluorescence intensity” value is 0.997.

On to `Nc1ncn(C2CC(O)C(CO)O2)c(=O)n1` (stereo unspecified) [5-Aza-2-deoxycytidine], for which the “surface PD-L1 immunofluorescence intensity” value was 1.09.

`NC(C(=O)O)c1ccc(C(=O)O)c(C(=O)O)c1` (stereo unspecified): the “surface PD-L1 immunofluorescence intensity” value worked out at 1.03.

With `NNC(=O)c1ccncc1` [Isoniazid], the “surface PD-L1 immunofluorescence intensity” value worked out at 0.968.

With `CN(C(=O)CCCOc1ccc2[nH]c(=O)ccc2c1)C1CCCCC1` [Cilostamide], the “surface PD-L1 immunofluorescence intensity” value is 0.978.

Turning to `CN1CCN(C(=O)c2nc3ccc(Cl)cc3[nH]2)CC1`, the “surface PD-L1 immunofluorescence intensity” value was determined as 1.05.

Consider `COc1ccc(Br)cc1S(=O)(=O)NC(=O)/C=C/c1ccccc1Cc1ccc2ccccc2c1`, for which the “surface PD-L1 immunofluorescence intensity” value was determined as 1.01.

Regarding `CCN1CCCC1CNC(=O)c1cc(S(N)(=O)=O)ccc1OC` (stereo unspecified) [Sulpiride], the “surface PD-L1 immunofluorescence intensity” value was found to be 0.905.

For `COc1ccc(-c2ccc3cc(C(=O)O)ccc3c2)cc1C12CC3CC(CC(C3)C1)C2` [Adapalene], the “surface PD-L1 immunofluorescence intensity” value was found to be 0.969.

`O=C(Cc1ccccc1)Nc1cccc(C(=O)Nc2ccccc2C(=O)O)c1`: the “surface PD-L1 immunofluorescence intensity” value stood at 1.11.

As for `O=C(O)c1cccnc1` [Niacin], the “surface PD-L1 immunofluorescence intensity” value came to 1.08.

For the compound `CCCCc1oc2ccccc2c1C(=O)c1cc(I)c(OCCN(CC)CC)c(I)c1` [Amiodarone], the “surface PD-L1 immunofluorescence intensity” value is 0.883.

Take `CCCCc1oc2ccccc2c1C(=O)c1cc(I)c(OCCN(CC)CC)c(I)c1` [Amiodarone hydrochloride]: the “surface PD-L1 immunofluorescence intensity” value is 0.952.

For the compound `O=c1[nH]c(=O)n([C@H]2C[C@H](O)[C@@H](CO)O2)cc1I` [Idoxuridine], the “surface PD-L1 immunofluorescence intensity” value turned out to be 1.21.

On to `Cc1cccc(N(C)C(=S)Oc2ccc3ccccc3c2)c1` [Tolnaftate], for which the “surface PD-L1 immunofluorescence intensity” value came out at 0.908.

Take `CN(Cc1cc(Br)cc(Br)c1N)C1CCCCC1` [Bromhexine hydrochloride]: the “surface PD-L1 immunofluorescence intensity” value was 1.01.

Regarding `C[C@H](CS)C(=O)N1CCC[C@H]1C(=O)O` [Captopril (Capoten)], the “surface PD-L1 immunofluorescence intensity” value is 1.08.

As for `C[C@H](CS)C(=O)N1CCC[C@H]1C(=O)O` [Captopril], the “surface PD-L1 immunofluorescence intensity” value was 0.933 ± 0.09.

For the compound `CC1(C)O[C@@H]2C[C@H]3[C@@H]4C[C@H](F)C5=CC(=O)C=C[C@]5(C)[C@H]4[C@@H](O)C[C@]3(C)[C@]2(C(=O)CO)O1` [Flunisolide], the “surface PD-L1 immunofluorescence intensity” value came out at 0.801.

In the case of `Nc1nc(N)c2nc(-c3cccc(O)c3)c(-c3cccc(O)c3)nc2n1`, the “surface PD-L1 immunofluorescence intensity” value came out at 0.991.

For `NCCc1ccc(O)c(O)c1` [Dopamine hydrochloride], the “surface PD-L1 immunofluorescence intensity” value was 0.893.

Take `O=C(/C=C/c1cccnc1)NCCCCC1CCN(C(=O)c2ccccc2)CC1`: the “surface PD-L1 immunofluorescence intensity” value was 0.935.

As for `CCCNC(=O)N1N=C(c2ccc(N)cc2)c2cc3c(cc2C1C)OCO3` (stereo unspecified), the “surface PD-L1 immunofluorescence intensity” value amounted to 0.948.

As to `Cc1c(Nc2ncccc2C(=O)O)cccc1C(F)(F)F` [Flunixin meglumine], the “surface PD-L1 immunofluorescence intensity” value was determined as 1.06.

As for `CC[C@H](c1ccc(O)cc1)[C@@H](CC)c1ccc(O)cc1` [Hexestrol], the “surface PD-L1 immunofluorescence intensity” value was found to be 1.05.

On to `CC[C@H](c1ccc(O)cc1)[C@@H](CC)c1ccc(O)cc1` [Hexestrol (Bibenzyl)], for which the “surface PD-L1 immunofluorescence intensity” value amounted to 1.03.

Consider `N#CC1(c2ccc(NC(=O)c3cccnc3NCc3ccncc3)cc2)CCCC1` [Apatinib (YN968D1)], for which the “surface PD-L1 immunofluorescence intensity” value is 1.17.

In the case of `CN1CCN(C(=O)c2cc3cc(Cl)ccc3[nH]2)CC1`, the “surface PD-L1 immunofluorescence intensity” value came to 0.922.

Take `CCCN(CC1CC1)c1nc(C)nc(Nc2c(Cl)cc(Cl)cc2Cl)c1Cl`: the “surface PD-L1 immunofluorescence intensity” value worked out at 0.993.

With `Cc1ccc2c(c1)c1c(n2CCc2ccc(C)nc2)CCN(C)C1` [Dimebon (Latrepirdine)], the “surface PD-L1 immunofluorescence intensity” value is 0.965.

Take `COc1ccc(CNc2nc(N3CCC[C@H]3CO)ncc2C(=O)NCc2ncccn2)cc1Cl` [Avanafil]: the “surface PD-L1 immunofluorescence intensity” value amounted to 0.906.

With `O=C1NC(c2cccc([N+](=O)[O-])c2)=CCN1c1ccccc1O` [Icilin], the “surface PD-L1 immunofluorescence intensity” value stood at 0.932.

With `CC(=O)OCC(=O)[C@@]1(O)CC[C@H]2[C@@H]3CCC4=CC(=O)C=C[C@]4(C)[C@H]3[C@@H](O)C[C@@]21C` [Prednisolone acetate (Omnipred)], the “surface PD-L1 immunofluorescence intensity” value came to 0.723.

For `CCCCOc1ccc(C(=O)CCN2CCCCC2)cc1` [Dyclonine hydrochloride], the “surface PD-L1 immunofluorescence intensity” value was found to be 0.913.

For `C=C1C(=O)O[C@H]2[C@H]1CC/C(C)=C/CC[C@@]1(C)O[C@@H]21` [Parthenolide], the “surface PD-L1 immunofluorescence intensity” value worked out at 1.02.

As for `COc1ccc(CCC(=O)Nc2nc3ccc(Cl)cc3s2)cc1OC`, the “surface PD-L1 immunofluorescence intensity” value is 0.967.

For the compound `CN1[C@@H]2CC[C@H]1C[C@@H](OC(=O)C(O)c1ccccc1)C2` (mixture of isomers) [Homatropine hydrobromide (R,S)], the “surface PD-L1 immunofluorescence intensity” value came out at 0.916.

`O=[N+]([O-])c1cn2c(n1)OC[C@@H](OCc1ccc(OC(F)(F)F)cc1)C2`: the “surface PD-L1 immunofluorescence intensity” value came out at 1.02.

On to `Cn1nnc2c(C(N)=O)ncn2c1=O` [Methazolastone], for which the “surface PD-L1 immunofluorescence intensity” value worked out at 0.952.

For the compound `Cn1nnc2c(C(N)=O)ncn2c1=O` [Temozolomide], the “surface PD-L1 immunofluorescence intensity” value was 1.01 ± 0.054.

Regarding `C[C@]12CC[C@H](O)CC1=CC[C@@H]1[C@@H]2CC[C@]2(C)C(c3cccnc3)=CC[C@@H]12` [Abiraterone (CB-7598)], the “surface PD-L1 immunofluorescence intensity” value came to 1.13.

As to `COc1ccc(CCC(=O)c2c(O)cc(O[C@@H]3O[C@H](CO)[C@@H](O)[C@H](O)[C@H]3O[C@@H]3O[C@@H](C)[C@H](O)[C@@H](O)[C@H]3O)cc2O)cc1O` [Neohesperidin dihydrochalcone (Nhdc)], the “surface PD-L1 immunofluorescence intensity” value was 1.07.

On to `CC(C)(C)CC(C)(C)c1ccc(OCCOCC[N+](C)(C)Cc2ccccc2)cc1` [Benzethonium chloride], for which the “surface PD-L1 immunofluorescence intensity” value was 1.22.

As for `CC(C)(C)NC(=O)[C@H]1CC[C@H]2[C@@H]3CC[C@H]4NC(=O)C=C[C@]4(C)[C@H]3CC[C@]12C` [Finasteride], the “surface PD-L1 immunofluorescence intensity” value was determined as 1.05 ± 0.051.

Turning to `C=CC[N+]1([C@H]2C[C@H]3[C@@H]4CC[C@H]5C[C@H](O)[C@@H](N6CCOCC6)C[C@]5(C)[C@H]4CC[C@]3(C)[C@H]2OC(C)=O)CCCC1` [Rocuronium bromide], the “surface PD-L1 immunofluorescence intensity” value turned out to be 1.01.

`Nc1nc(N)c2nc(-c3ccccc3)c(N)nc2n1` [Triamterene]: the “surface PD-L1 immunofluorescence intensity” value stood at 0.812.

Take `C=C1CC[C@H](O)C/C1=C/C=C1\CCC[C@]2(C)[C@@H]([C@H](C)/C=C/[C@H](C)C(C)C)CC[C@@H]12` [Vitamin D2 (Ergocalciferol)]: the “surface PD-L1 immunofluorescence intensity” value is 1.03.

For the compound `O=C(O)c1cc(O)ccc1O` [Gentisic acid], the “surface PD-L1 immunofluorescence intensity” value stood at 0.91.

As for `C[N+](C)(C)CC(O)CC(=O)[O-]` (racemic) [DL-Carnitine HCl], the “surface PD-L1 immunofluorescence intensity” value turned out to be 0.931.

Consider `CC(C)C(=O)c1c(C(C)C)nn2ccccc12` [Ibudilast], for which the “surface PD-L1 immunofluorescence intensity” value amounted to 0.963 ± 0.051.

Take `C[N+](C)(C)C[C@H](O)CC(=O)[O-]` [L-carnitine (Levocarnitine)]: the “surface PD-L1 immunofluorescence intensity” value is 1.13.

Regarding `CC(C)NCC(O)COc1cccc2[nH]ccc12` (stereo unspecified) [Pindolol], the “surface PD-L1 immunofluorescence intensity” value stood at 0.954.

Turning to `OC(CCN1CCCC1)(c1ccccc1)C1CCCCC1` (stereo unspecified) [Procyclidine hydrochloride], the “surface PD-L1 immunofluorescence intensity” value was determined as 0.922.

For `COP(=O)(OC)OC(c1ccc(Cl)cc1)P(=O)(OC)OC` (stereo unspecified), the “surface PD-L1 immunofluorescence intensity” value is 0.99.

On to `CC(CN(C)C)CN1c2ccccc2CCc2ccccc21` (stereo unspecified) [Trimipramine maleate salt], for which the “surface PD-L1 immunofluorescence intensity” value stood at 1.04.

Take `Cn1c(N2CCCCS2(=O)=O)nc(C(=O)NCc2ccc(F)cc2)c(O)c1=O`: the “surface PD-L1 immunofluorescence intensity” value came out at 1.02.

In the case of `COC(=O)[C@H]1[C@H]2C[C@H]3c4[nH]c5ccccc5c4CCN3C[C@H]2CC[C@@H]1O` [Rauwolscine hydrochloride], the “surface PD-L1 immunofluorescence intensity” value is 1.04.

For the origin of these results see the supplement of paper PMC8732350.
